Experimental data from publication PMC5841321.
Results are given in words; binding and its absence hold for the method and conditions named. In cells and extracts the contact can be indirect. These calls come from enrichment with a bait or labelling near it, and not all partners need be listed.

T1: E3 ubiquitin-protein ligase Midline-1 (UniProt O15344)
T1 sequence: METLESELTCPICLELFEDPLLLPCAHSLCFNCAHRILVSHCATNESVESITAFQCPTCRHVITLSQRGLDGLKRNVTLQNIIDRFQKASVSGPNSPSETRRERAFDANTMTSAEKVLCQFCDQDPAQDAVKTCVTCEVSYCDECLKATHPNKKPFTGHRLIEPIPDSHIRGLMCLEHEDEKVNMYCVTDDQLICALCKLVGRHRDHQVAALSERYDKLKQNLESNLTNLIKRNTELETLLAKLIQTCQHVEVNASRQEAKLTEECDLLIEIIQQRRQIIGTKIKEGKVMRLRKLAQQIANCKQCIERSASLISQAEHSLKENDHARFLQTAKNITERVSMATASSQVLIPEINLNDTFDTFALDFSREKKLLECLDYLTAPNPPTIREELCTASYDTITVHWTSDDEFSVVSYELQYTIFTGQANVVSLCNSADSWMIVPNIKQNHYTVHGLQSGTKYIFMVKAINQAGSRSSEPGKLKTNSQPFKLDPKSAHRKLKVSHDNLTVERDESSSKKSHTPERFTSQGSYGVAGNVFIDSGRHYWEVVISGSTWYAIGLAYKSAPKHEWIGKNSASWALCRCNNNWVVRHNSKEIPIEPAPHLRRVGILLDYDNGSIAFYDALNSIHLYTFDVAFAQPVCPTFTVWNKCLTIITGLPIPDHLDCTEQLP

B1: Putative helicase MOV-10 (protein, UniProt Q9HCE1 1-1003)
chain: MPSKFSCRQLREAGQCFESFLVVRGLDMETDRERLRTIYNRDFKISFGTPAPGFSSMLYGMKIANLAYVTKTRVRFFRLDRWADVRFPEKRRMKLGSDISKHHKSLLAKIFYDRAEYLHGKHGVDVEVQGPHEARDGQLLIRLDLNRKEVLTLRLRNGGTQSVTLTHLFPLCRTPQFAFYNEDQELPCPLGPGECYELHVHCKTSFVGYFPATVLWELLGPGESGSEGAGTFYIARFLAAVAHSPLAAQLKPMTPFKRTRITGNPVVTNRIEEGERPDRAKGYDLELSMALGTYYPPPRLRQLLPMLLQGTSIFTAPKEIAEIKAQLETALKWRNYEVKLRLLLHLEELQMEHDIRHYDLESVPMTWDPVDQNPRLLTLEVPGVTESRPSVLRGDHLFALLSSETHQEDPITYKGFVHKVELDRVKLSFSMSLLSRFVDGLTFKVNFTFNRQPLRVQHRALELTGRWLLWPMLFPVAPRDVPLLPSDVKLKLYDRSLESNPEQLQAMRHIVTGTTRPAPYIIFGPPGTGKTVTLVEAIKQVVKHLPKAHILACAPSNSGADLLCQRLRVHLPSSIYRLLAPSRDIRMVPEDIKPCCNWDAKKGEYVFPAKKKLQEYRVLITTLITAGRLVSAQFPIDHFTHIFIDEAGHCMEPESLVAIAGLMEVKETGDPGGQLVLAGDPRQLGPVLRSPLTQKHGLGYSLLERLLTYNSLYKKGPDGYDPQFITKLLRNYRSHPTILDIPNQLYYEGELQACADVVDRERFCRWAGLPRQGFPIIFHGVMGKDEREGNSPSFFNPEEAATVTSYLKLLLAPSSKKGKARLSPRSVGVISPYRKQVEKIRYCITKLDRELRGLDDIKDLKVGSVEEFQGQERSVILISTVRSSQSFVQLDLDFNLGFLKNPKRFNVAVTRAKALLIIVGNPLLLGHDPDWKVFLEFCKENGGYTGCPFPAKLDLQQGQNLLQGLSKLSPSTSGPHSHDYLPQEREGEGGLSLQVEPEWRNEL
B2: Protein LYRIC (protein, UniProt Q86UE4 1-582)
chain: MAARSWQDELAQQAEEGSARLREMLSVGLGFLRTELGLDLGLEPKRYPGWVILVGTGALGLLLLFLLGYGWAAACAGARKKRRSPPRKREEAAAVPAAAPDDLALLKNLRSEEQKKKNRKKLSEKPKPNGRTVEVAEGEAVRTPQSVTAKQPPEIDKKNEKSKKNKKKSKSDAKAVQNSSRHDGKEVDEGAWETKISHREKRQQRKRDKVLTDSGSLDSTIPGIENTITVTTEQLTTASFPVGSKKNKGDSHLNVQVSNFKSGKGDSTLQVSSGLNENLTVNGGGWNEKSVKLSSQISAGEEKWNSVSPASAGKRKTEPSAWSQDTGDANTNGKDWGRSWSDRSIFSGIGSTAEPVSQSTTSDYQWDVSRNQPYIDDEWSGLNGLSSADPNSDWNAPAEEWGNWVDEERASLLKSQEPIPDDQKVSDDDKEKGEGALPTGKSKKKKKKKKKQGEDNSTAQDTEELEKEIREDLPVNTSKTRPKQEKAFSLKTISTSDPAEVLVKNSQPIKTLPPATSTEPSVILSKSDSDKSSSQVPPILQETDKSKSNTKQNSVPPSQTKSETSWESPKQIKKKKKARRET
B3: Myb-binding protein 1A (protein, UniProt Q9BQG0 1-1328)
chain: MESRDPAQPMSPGEATQSGARPADRYGLLKHSREFLDFFWDIAKPEQETRLAATEKLLEYLRGRPKGSEMKYALKRLITGLGVGRETARPCYSLALAQLLQSFEDLPLCSILQQIQEKYDLHQVKKAMLRPALFANLFGVLALFQSGRLVKDQEALMKSVKLLQALAQYQNHLQEQPRKALVDILSEVSKATLQEILPEVLKADLNIILSSPEQLELFLLAQQKVPSKLKKLVGSVNLFSDENVPRLVNVLKMAASSVKKDRKLPAIALDLLRLALKEDKFPRFWKEVVEQGLLKMQFWPASYLCFRLLGAALPLLTKEQLHLVMQGDVIRHYGEHVCTAKLPKQFKFAPEMDDYVGTFLEGCQDDPERQLAVLVAFSSVTNQGLPVTPTFWRVVRFLSPPALQGYVAWLRAMFLQPDLDSLVDFSTNNQKKAQDSSLHMPERAVFRLRKWIIFRLVSIVDSLHLEMEEALTEQVARFCLFHSFFVTKKPTSQIPETKHPFSFPLENQAREAVSSAFFSLLQTLSTQFKQAPGQTQGGQPWTYHLVQFADLLLNHSHNVTTVTPFTAQQRQAWDRMLQTLKELEAHSAEARAAAFQHLLLLVGIHLLKSPAESCDLLGDIQTCIRKSLGEKPRRSRTKTIDPQEPPWVEVLVEILLALLAQPSHLMRQVARSVFGHICSHLTPRALQLILDVLNPETSEDENDRVVVTDDSDERRLKGAEDKSEEGEDNRSSESEEESEGEESEEEERDGDVDQGFREQLMTVLQAGKALGGEDSENEEELGDEAMMALDQSLASLFAEQKLRIQARRDEKNKLQKEKALRRDFQIRVLDLVEVLVTKQPENALVLELLEPLLSIIRRSLRSSSSKQEQDLLHKTARIFTHHLCRARRYCHDLGERAGALHAQVERLVQQAGRQPDSPTALYHFNASLYLLRVLKGNTAEGCVHETQEKQKAGTDPSHMPTGPQAASCLDLNLVTRVYSTALSSFLTKRNSPLTVPMFLSLFSRHPVLCQSLLPILVQHITGPVRPRHQACLLLQKTLSMREVRSCFEDPEWKQLMGQVLAKVTENLRVLGEAQTKAQHQQALSSLELLNVLFRTCKHEKLTLDLTVLLGVLQGQQQSLQQGAHSTGSSRLHDLYWQAMKTLGVQRPKLEKKDAKEIPSATQSPISKKRKKKGFLPETKKRKKRKSEDGTPAEDGTPAATGGSQPPSMGRKKRNRTKAKVPAQANGTPTTKSPAPGAPTRSPSTPAKSPKLQKKNQKPSQVNGAPGSPTEPAGQKQHQKALPKKGVLGKSPLSALARKKARLSLVIRSPSLLQSGAKKKAQVRKAGKP
B4: Nucleolar complex protein 4 homolog (protein, UniProt Q9BVI4 1-516)
chain: MEREPGAAGVRRALGRRLEAVLASRSEANAVFDILAVLQSEDQEEIQEAVRTCSRLFGALLERGELFVGQLPSEEMVMTGSQGATRKYKVWMRHRYHSCCNRLGELLGHPSFQVKELALSALLKFVQLEGAHPLEKSKWEGNYLFPRELFKLVVGGLLSPEEDQSLLLSQFREYLDYDDTRYHTMQAAVDAVARVTGQHPEVPPAFWNNAFTLLSAVSLPRREPTVSSFYVKRAELWDTWKVAHLKEHRRVFQAMWLSFLKHKLPLSLYKKVLLIVHDAILPQLAQPTLMIDFLTRACDLGGALSLLALNGLFILIHKHNLEYPDFYRKLYGLLDPSVFHVKYRARFFHLADLFLSSSHLPAYLVAAFAKRLARLALTAPPEALLMVLPFICNLLRRHPACRVLVHRPHGPELDADPYDPGEEDPAQSRALESSLWELQALQRHYHPEVSKAASVINQALSMPEVSIAPLLELTAYEIFERDLKKKGPEPVPLEFIPAQGLLGRPGELCAQHFTLS
B5: Probable 28S rRNA (cytosine(4447)-C(5))-methyltransferase (protein, UniProt P46087 1-812)
chain: MGRKLDPTKEKRGPGRKARKQKGAETELVRFLPAVSDENSKRLSSRARKRAAKRRLGSVEAPKTNKSPEAKPLPGKLPKGISAGAVQTAGKKGPQSLFNAPRGKKRPAPGSDEEEEEEDSEEDGMVNHGDLWGSEDDADTVDDYGADSNSEDEEEGEALLPIERAARKQKAREAAAGIQWSEEETEDEEEEKEVTPESGPPKVEEADGGLQINVDEEPFVLPPAGEMEQDAQAPDLQRVHKRIQDIVGILRDFGAQREEGRSRSEYLNRLKKDLAIYYSYGDFLLGKLMDLFPLSELVEFLEANEVPRPVTLRTNTLKTRRRDLAQALINRGVNLDPLGKWSKTGLVVYDSSVPIGATPEYLAGHYMLQGASSMLPVMALAPQEHERILDMCCAPGGKTSYMAQLMKNTGVILANDANAERLKSVVGNLHRLGVTNTIISHYDGRQFPKVVGGFDRVLLDAPCSGTGVISKDPAVKTNKDEKDILRCAHLQKELLLSAIDSVNATSKTGGYLVYCTCSITVEENEWVVDYALKKRNVRLVPTGLDFGQEGFTRFRERRFHPSLRSTRRFYPHTHNMDGFFIAKFKKFSNSIPQSQTGNSETATPTNVDLPQVIPKSENSSQPAKKAKGAAKTKQQLQKQQHPKKASFQKLNGISKGADSELSTVPSVTKTQASSSFQDSSQPAGKAEGIREPKVTGKLKQRSPKLQSSKKVAFLRQNAPPKGTDTQTPAVLSPSKTQATLKPKDHHQPLGRAKGVEKQQLPEQPFEKAAFQKQNDTPKGPQPPTVSPIRSSRPPPAKRKKSQSRGNSQLLLS
B6: Proliferation-associated protein 2G4 (protein, UniProt Q9UQ80 1-394)
chain: MSGEDEQQEQTIAEDLVVTKYKMGGDIANRVLRSLVEASSSGVSVLSLCEKGDAMIMEETGKIFKKEKEMKKGIAFPTSISVNNCVCHFSPLKSDQDYILKEGDLVKIDLGVHVDGFIANVAHTFVVDVAQGTQVTGRKADVIKAAHLCAEAALRLVKPGNQNTQVTEAWNKVAHSFNCTPIEGMLSHQLKQHVIDGEKTIIQNPTDQQKKDHEKAEFEVHEVYAVDVLVSSGEGKAKDAGQRTTIYKRDPSKQYGLKMKTSRAFFSEVERRFDAMPFTLRAFEDEKKARMGVVECAKHELLQPFNVLYEKEGEFVAQFKFTVLLMPNGPMRITSGPFEPDLYKSEMEVQDAELKALLQSSASRKTQKKKKKKASKTAENATSGETLEENEAGD
B7: Programmed cell death protein 4 (protein, UniProt Q53EL6 1-469)
chain: MDVENEQILNVNPADPDNLSDSLFSGDEENAGTEEIKNEINGNWISASSINEARINAKAKRRLRKNSSRDSGRGDSVSDSGSDALRSGLTVPTSPKGRLLDRRSRSGKGRGLPKKGGAGGKGVWGTPGQVYDVEEVDVKDPNYDDDQENCVYETVVLPLDERAFEKTLTPIIQEYFEHGDTNEVAEMLRDLNLGEMKSGVPVLAVSLALEGKASHREMTSKLLSDLCGTVMSTTDVEKSFDKLLKDLPELALDTPRAPQLVGQFIARAVGDGILCNTYIDSYKGTVDCVQARAALDKATVLLSMSKGGKRKDSVWGSGGGQQSVNHLVKEIDMLLKEYLLSGDISEAEHCLKELEVPHFHHELVYEAIIMVLESTGESTFKMILDLLKSLWKSSTITVDQMKRGYERIYNEIPDINLDVPHSYSVLERFVEECFQAGIISKQLRDLCPSRGRKRFVSEGDGGRLKPESY

Molecular target: T1, E3 ubiquitin-protein ligase Midline-1
Assay: affinity purification with mass spectrometry; MID1-FLAG expressed in HEK293T, lysate in TKM buffer (20 mM Tris pH 7.4, 100 mM KCl, 5 mM MgCl2, 0.5% NP40, 1 mM DTT), anti-FLAG M1 agarose overnight at 4 °C, 6 washes; untransfected cells as control; Q-Exactive, MaxQuant, 1% FDR

Row | Binder | binding
1 | B1 | binds
2 | B2 | binds
3 | B3 | binds
4 | B4 | binds
5 | B5 | binds
6 | B6 | binds
7 | B7 | binds
